Assay results reported in PubChem BioAssay AID248 (DTP/NCI, 2004).
The list does not hold the whole screen: it gathers tests that were run many times, whatever their T/C, doses with no T/C, and many T/C values between a quarter and a half above the control. Further doses and runs are listed elsewhere. T/C: endpoint of the treated group in % of that of the vehicle group. Some doses have a count of surviving animals in place of a T/C: the source files T/C as zero there, which appears to mark a toxic dose or a test without result, not a measured value. Some doses without a T/C left all or most animals alive at the check, yet need not have been tolerated: survival well below the control is almost never listed, so the zero probably covers shortened survival too. Counts of survivors are from the toxicity check (mostly the fifth day) where no day follows; animals may have died later. Schedule codes are those of the source, taken here to give the interval after Q, in days (D) or hours (H), and the number of doses after X. Some doses were run more than once; the values are given in rising order. Some schedule codes hold Z or #, which are not explained here. For survival time, the PubChem record calls one and a half times the control and up active, and a quarter to a half above the control has no call in these data; cut-offs in other NCI protocols can differ. Marks such as (2×) say how often a value occurs here.

System: L1210 leukemia ip in BDF1 mice, survival T/C
Assay: NCI In Vivo Anticancer Drug Screen. Data for tumor model L1210 Leukemia (intraperitoneal) in B6D2F1 (BDF1) mice
Details: T/C endpoint: mean survival time, higher T/C = longer survival
[1] = dose: 200.0 mg/kg/injection, schedule: Q04DX003 (ip), vehicle: Klucel (hydroxypropylcellulose) (HPC)
[2] = dose: 400.0 mg/kg/injection, schedule: Q04DX003 (ip), vehicle: Klucel (hydroxypropylcellulose) (HPC)
[3] = dose: 100.0 mg/kg/injection, schedule: Q04DX002 (ip), vehicle: saline with Tween-80
[4] = dose: 200.0 mg/kg/injection, schedule: Q04DX002 (ip), vehicle: saline with Tween-80
[5] = dose: 400.0 mg/kg/injection, schedule: Q04DX002 (ip), vehicle: saline with Tween-80
[6] = dose: 200.0 mg/kg/injection, schedule: Q01DX009 (ip), vehicle: saline with Tween-80

For `CC(=O)N(O)CCCCCNC(=O)CCC(=O)N(O)CCCCCNC(=O)CCC(=O)N(O)CCCCCN`, the T/C (dose: 125.0 mg/kg/injection, schedule: Q03HX024 (ip), vehicle: clinical formulation, evaluated on day 5) was 102 % of control (2×), the T/C (dose: 125.0 mg/kg/injection, schedule: Q03HX024 (ip), vehicle: clinical formulation, evaluated on day 45) was 102 % of control and the T/C (dose: 125.0 mg/kg/injection, schedule: Q03HX024 (ip), vehicle: clinical formulation, evaluated on day 60) was 102 % of control. For the same compound, the T/C (dose: 188.0 mg/kg/injection, schedule: Q03HX024 (ip), vehicle: clinical formulation, evaluated on day 5) was 95 and 106 % of control, the T/C (dose: 188.0 mg/kg/injection, schedule: Q03HX024 (ip), vehicle: clinical formulation, evaluated on day 45) was 103 % of control and the T/C (dose: 188.0 mg/kg/injection, schedule: Q03HX024 (ip), vehicle: clinical formulation, evaluated on day 60) was 106 % of control. For the same compound, the T/C (dose: 188.0 mg/kg/injection, schedule: Q03HX024 (ip), vehicle: water, evaluated on day 5) was 99, 102, 108 % of control, the T/C (dose: 188.0 mg/kg/injection, schedule: Q03HX024 (ip), vehicle: water, evaluated on day 60) was 108 % of control and the T/C (dose: 280.0 mg/kg/injection, schedule: Q03HX024 (ip), vehicle: clinical formulation, evaluated on day 5) was 103 and 106 % of control. For the same compound, the T/C (dose: 280.0 mg/kg/injection, schedule: Q03HX024 (ip), vehicle: clinical formulation, evaluated on day 45) was 103 % of control, the T/C (dose: 280.0 mg/kg/injection, schedule: Q03HX024 (ip), vehicle: clinical formulation, evaluated on day 60) was 106 % of control and the T/C (dose: 280.0 mg/kg/injection, schedule: Q03HX024 (ip), vehicle: water, evaluated on day 5) was 97, 101, 102 % of control. The T/C (dose: 280.0 mg/kg/injection, schedule: Q03HX024 (ip), vehicle: water, evaluated on day 60) was 102 % of control.
For `NC(N)=N/N=C(/c1ccccc1)c1ccccc1N`, the survivor count (dose: 420.0 mg/kg/injection, schedule: Q01DX Z (ip), vehicle: methylcellulose (MC)) was 0 of 6, the survivor count (dose: 600.0 mg/kg/injection, schedule: Q01DX Z (ip), vehicle: methylcellulose (MC)) was 0 of 6 and the survivor count (dose: 960.0 mg/kg/injection, schedule: Q01DX Z (oral), vehicle: methylcellulose (MC)) was 1 of 6.
With `c1coc(-c2ncnc3c2Cc2ccccc2-3)c1` the survivor count (dose: 12.5 mg/kg/injection, schedule: Q04DX003 (ip), vehicle: Klucel (hydroxypropylcellulose) (HPC)) was 6 of 6, the survivor count (dose: 150.0 mg/kg/injection, schedule: Q01DX009 (ip), vehicle: Klucel (hydroxypropylcellulose) (HPC)) was 6 of 6 and the survivor count [1] was 3 of 6. The survivor count (dose: 225.0 mg/kg/injection, schedule: Q01DX009 (ip), vehicle: Klucel (hydroxypropylcellulose) (HPC)) was 6 of 6, the survivor count (dose: 335.0 mg/kg/injection, schedule: Q01DX009 (ip), vehicle: Klucel (hydroxypropylcellulose) (HPC)) was 1 of 6 and the survivor count [2] was 0 of 6.
For `COC(=O)[C@H]1[C@H]2C[C@@H]3c4[nH]c5cc(OC)ccc5c4CCN3C[C@H]2C[C@@H](OC(=O)c2cccc(N(C)C)c2)[C@@H]1OC`, the survivor count (dose: 12.5 mg/kg/injection, schedule: Q01DX009 (ip), vehicle: Klucel (hydroxypropylcellulose) (HPC)) was 4 of 6, the survivor count (dose: 25.0 mg/kg/injection, schedule: Q04DX003 (ip), vehicle: Klucel (hydroxypropylcellulose) (HPC)) was 4 of 4 and the survivor count (dose: 50.0 mg/kg/injection, schedule: Q04DX003 (ip), vehicle: Klucel (hydroxypropylcellulose) (HPC)) was 3 of 4. For the same compound, the survivor count (dose: 100.0 mg/kg/injection, schedule: Q04DX003 (ip), vehicle: Klucel (hydroxypropylcellulose) (HPC)) was 0 of 4, the survivor count [1] was 2 of 4 and the survivor count [2] was 0 of 4.
In the case of `Clc1cc(Cl)nc(N2CC2)n1`, the survivor count (dose: 0.05 mg/kg/injection, schedule: Q01DX Z (ip), vehicle: methylcellulose (MC)) is reported as 1 of 6, the survivor count (dose: 1.0 mg/kg/injection, schedule: Q01DX Z (ip), vehicle: methylcellulose (MC)) is reported as 2 of 6 and the survivor count (dose: 3.0 mg/kg/injection, schedule: Q01DX Z (ip), vehicle: methylcellulose (MC)) is reported as 0 of 6. For the same compound, the survivor count (dose: 6.0 mg/kg/injection, schedule: Q01DX Z (ip), vehicle: methylcellulose (MC)) was 1 of 6, the survivor count (dose: 12.0 mg/kg/injection, schedule: Q01DX Z (ip), vehicle: methylcellulose (MC)) was 0 of 6 and the survivor count (dose: 25.0 mg/kg/injection, schedule: Q01DX009 (ip), vehicle: acetone) was 0 of 6. The survivor count (dose: 25.0 mg/kg/injection, schedule: Q01DX Z (ip), vehicle: methylcellulose (MC)) was 0 of 6, the survivor count (dose: 50.0 mg/kg/injection, schedule: Q01DX Z (ip), vehicle: methylcellulose (MC)) was 0 of 6 and the survivor count (dose: 50.0 mg/kg/injection, schedule: Q04DX003 (ip), vehicle: saline) was 2 of 6. For the same compound, the survivor count (dose: 100.0 mg/kg/injection, schedule: Q01DX Z (ip), vehicle: methylcellulose (MC)) was 0 of 6, the survivor count (dose: 100.0 mg/kg/injection, schedule: Q04DX003 (ip), vehicle: acetone) was 0 of 6 and the survivor count (dose: 200.0 mg/kg/injection, schedule: Q01DX Z (ip), vehicle: methylcellulose (MC)) was 0 of 6. The survivor count (dose: 200.0 mg/kg/injection, schedule: Q04DX003 (ip), vehicle: acetone) was 0 of 6 and the survivor count (dose: 400.0 mg/kg/injection, schedule: Q04DX003 (ip), vehicle: acetone) was 0 of 6.
`O/N=C/C=N/O.O/N=C/C=N/O.[Pd]` was tested, and the survivor count [3] was 0 of 3, the survivor count [4] was 0 of 3 and the survivor count [5] was 0 of 3.
`CCN(C(=O)CCl)c1ccccc1C` was tested, and the survivor count [6] was 0 of 6.
With `c1ccc2c(c1)NCCN2` the survivor count (dose: 50.0 mg/kg/injection, schedule: Q01DX001 (ip), vehicle: saline) was 0 of 3, the survivor count (dose: 100.0 mg/kg/injection, schedule: Q01DX001 (ip), vehicle: saline with Tween-80) was 0 of 3 and the survivor count (dose: 200.0 mg/kg/injection, schedule: Q01DX001 (ip), vehicle: saline with Tween-80) was 0 of 3. The survivor count (dose: 400.0 mg/kg/injection, schedule: Q01DX001 (ip), vehicle: saline with Tween-80) was 0 of 3.
With `Nc1nc(=O)n(C2OC(CO)C(O)C2O)cc1Cl` (centres undefined) the T/C (dose: 100.0 mg/kg/injection, schedule: Q01DX005 (ip), vehicle: saline) was 134 and 138 % of control and the T/C (dose: 100.0 mg/kg/injection, schedule: Q01DX009 (ip), vehicle: saline) was 140 % of control.
With `O=C(O)/C=C\C(=O)Nc1ccc2c(c1)Cc1cc(Cl)ccc1-2` the survivor count (dose: 400.0 mg/kg/injection, schedule: Q04DX003 (ip), vehicle: saline with Tween-80) was 3 of 6.
In the case of `O=[N+]([O-])c1ccc(/C=N/O)s1`, the survivor count (dose: 100.0 mg/kg/injection, schedule: Q01DX009 (ip), vehicle: saline with Tween-80) is reported as 0 of 6, the survivor count [3] is reported as 0 of 3 and 1 of 3 and the survivor count [6] is reported as 0 of 6. The survivor count [4] was 1 of 3, the survivor count (dose: 400.0 mg/kg/injection, schedule: Q01DX009 (ip), vehicle: saline with Tween-80) was 0 of 6 and the survivor count [5] was 0 of 3.
In the case of `ClCCN(CCCl)CCCN1c2ccccc2Sc2ccccc21`, the survivor count (dose: 25.0 mg/kg/injection, schedule: Q01DX009 (ip), vehicle: saline with Tween-80) is reported as 2 of 6, the T/C (dose: 25.0 mg/kg/injection, schedule: Q04DX003 (ip), vehicle: saline with Tween-80) is reported as 125 % of control and the survivor count (dose: 50.0 mg/kg/injection, schedule: Q01DX009 (ip), vehicle: saline with Tween-80) is reported as 0 of 6. For the same compound, the survivor count (dose: 100.0 mg/kg/injection, schedule: Q04DX003 (ip), vehicle: saline with Tween-80) was 3 of 6.
`CCCCCC[Si](Cl)(Cl)Cl` was tested, and the survivor count (dose: 300.0 mg/kg/injection, schedule: Q01DX001 (ip), vehicle: saline) was 3 of 6.
